These results are taken from the supplement of paper PMC11006884.

Protein sequences, listed by entry. Tags and fused reporters are not part of them. Lines headed by an entry give the natural chain unless they say otherwise; changes in a name come on top.
UniProt P45880: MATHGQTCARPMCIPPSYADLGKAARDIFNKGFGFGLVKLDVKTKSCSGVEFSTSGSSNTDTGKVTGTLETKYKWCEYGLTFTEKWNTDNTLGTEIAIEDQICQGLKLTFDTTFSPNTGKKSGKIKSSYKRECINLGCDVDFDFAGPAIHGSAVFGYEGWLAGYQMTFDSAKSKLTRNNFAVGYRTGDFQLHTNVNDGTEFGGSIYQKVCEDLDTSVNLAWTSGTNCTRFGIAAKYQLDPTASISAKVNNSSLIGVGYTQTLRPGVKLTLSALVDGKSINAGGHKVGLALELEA
UniProt P49458: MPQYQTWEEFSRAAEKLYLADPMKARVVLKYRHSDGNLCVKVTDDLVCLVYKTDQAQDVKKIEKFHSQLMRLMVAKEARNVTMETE
UniProt P51530: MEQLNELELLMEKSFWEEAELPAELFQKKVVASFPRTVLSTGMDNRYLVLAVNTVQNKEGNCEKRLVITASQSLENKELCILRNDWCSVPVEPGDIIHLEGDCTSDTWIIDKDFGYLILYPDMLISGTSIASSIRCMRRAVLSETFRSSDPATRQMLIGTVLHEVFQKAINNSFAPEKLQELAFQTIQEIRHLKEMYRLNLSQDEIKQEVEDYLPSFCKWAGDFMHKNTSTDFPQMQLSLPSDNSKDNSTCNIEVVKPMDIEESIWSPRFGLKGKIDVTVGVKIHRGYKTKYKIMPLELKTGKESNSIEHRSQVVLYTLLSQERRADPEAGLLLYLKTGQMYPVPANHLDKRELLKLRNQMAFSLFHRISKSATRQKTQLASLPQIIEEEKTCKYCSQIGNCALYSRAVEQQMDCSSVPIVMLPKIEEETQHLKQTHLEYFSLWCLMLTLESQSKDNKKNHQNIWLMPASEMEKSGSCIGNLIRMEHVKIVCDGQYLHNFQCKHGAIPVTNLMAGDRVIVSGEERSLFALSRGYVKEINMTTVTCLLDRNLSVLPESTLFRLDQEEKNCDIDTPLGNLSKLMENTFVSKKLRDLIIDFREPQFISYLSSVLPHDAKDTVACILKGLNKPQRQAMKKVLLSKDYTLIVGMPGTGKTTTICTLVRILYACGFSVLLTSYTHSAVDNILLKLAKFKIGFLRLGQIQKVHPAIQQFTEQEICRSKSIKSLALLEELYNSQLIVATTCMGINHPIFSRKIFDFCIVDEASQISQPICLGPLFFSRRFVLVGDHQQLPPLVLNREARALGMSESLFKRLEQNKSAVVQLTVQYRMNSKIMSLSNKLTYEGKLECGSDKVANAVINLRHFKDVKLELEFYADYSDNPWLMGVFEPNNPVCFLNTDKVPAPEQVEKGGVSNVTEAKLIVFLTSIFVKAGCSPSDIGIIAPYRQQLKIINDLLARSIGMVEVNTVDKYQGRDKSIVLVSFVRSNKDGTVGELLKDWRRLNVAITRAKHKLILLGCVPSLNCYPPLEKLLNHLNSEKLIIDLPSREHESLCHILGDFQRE
UniProt P47897: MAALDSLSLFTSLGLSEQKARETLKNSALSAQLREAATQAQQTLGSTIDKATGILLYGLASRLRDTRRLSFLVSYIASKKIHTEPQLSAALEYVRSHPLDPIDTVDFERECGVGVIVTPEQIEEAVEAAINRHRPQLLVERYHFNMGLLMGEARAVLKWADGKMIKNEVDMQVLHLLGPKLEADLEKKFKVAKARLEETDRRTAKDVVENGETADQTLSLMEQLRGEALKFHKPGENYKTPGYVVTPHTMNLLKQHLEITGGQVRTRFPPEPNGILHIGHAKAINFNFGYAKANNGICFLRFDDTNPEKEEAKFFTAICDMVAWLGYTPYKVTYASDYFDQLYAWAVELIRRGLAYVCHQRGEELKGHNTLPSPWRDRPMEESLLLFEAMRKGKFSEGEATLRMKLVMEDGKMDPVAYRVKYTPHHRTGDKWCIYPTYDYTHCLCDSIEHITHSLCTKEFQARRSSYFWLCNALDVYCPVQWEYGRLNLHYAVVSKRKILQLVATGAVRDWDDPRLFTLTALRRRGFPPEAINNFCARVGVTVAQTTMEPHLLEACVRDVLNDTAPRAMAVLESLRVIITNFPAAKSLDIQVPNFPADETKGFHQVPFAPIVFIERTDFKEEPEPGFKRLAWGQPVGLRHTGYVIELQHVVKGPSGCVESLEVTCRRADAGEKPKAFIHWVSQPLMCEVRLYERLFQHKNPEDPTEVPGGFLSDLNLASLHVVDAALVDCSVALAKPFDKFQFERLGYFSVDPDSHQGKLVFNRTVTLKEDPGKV
UniProt P51570: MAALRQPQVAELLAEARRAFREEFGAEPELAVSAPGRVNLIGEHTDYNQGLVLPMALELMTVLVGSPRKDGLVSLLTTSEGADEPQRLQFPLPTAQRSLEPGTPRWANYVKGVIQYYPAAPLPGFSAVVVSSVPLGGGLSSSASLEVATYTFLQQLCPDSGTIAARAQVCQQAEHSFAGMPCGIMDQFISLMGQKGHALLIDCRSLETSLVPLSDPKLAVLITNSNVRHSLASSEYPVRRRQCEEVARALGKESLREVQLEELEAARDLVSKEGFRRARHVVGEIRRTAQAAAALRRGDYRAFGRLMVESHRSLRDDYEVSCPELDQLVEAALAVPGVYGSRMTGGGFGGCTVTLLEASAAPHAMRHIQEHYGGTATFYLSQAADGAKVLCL
UniProt P49915: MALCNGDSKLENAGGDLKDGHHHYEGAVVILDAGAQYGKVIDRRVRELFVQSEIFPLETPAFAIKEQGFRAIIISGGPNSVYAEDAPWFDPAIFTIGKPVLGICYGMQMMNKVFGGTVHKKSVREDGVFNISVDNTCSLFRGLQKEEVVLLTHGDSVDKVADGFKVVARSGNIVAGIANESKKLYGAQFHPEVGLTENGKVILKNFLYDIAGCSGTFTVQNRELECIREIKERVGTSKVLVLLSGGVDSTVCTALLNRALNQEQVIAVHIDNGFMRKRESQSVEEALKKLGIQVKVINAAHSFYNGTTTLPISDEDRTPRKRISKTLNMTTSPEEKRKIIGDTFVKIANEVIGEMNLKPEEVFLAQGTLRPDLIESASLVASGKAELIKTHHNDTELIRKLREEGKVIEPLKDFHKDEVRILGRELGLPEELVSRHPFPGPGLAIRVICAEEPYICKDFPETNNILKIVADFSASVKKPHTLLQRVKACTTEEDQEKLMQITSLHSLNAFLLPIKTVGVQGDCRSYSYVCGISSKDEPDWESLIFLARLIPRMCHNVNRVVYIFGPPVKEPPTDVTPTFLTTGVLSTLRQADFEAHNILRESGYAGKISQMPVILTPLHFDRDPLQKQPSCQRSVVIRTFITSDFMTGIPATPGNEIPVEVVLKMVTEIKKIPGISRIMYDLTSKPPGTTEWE
UniProt P45974: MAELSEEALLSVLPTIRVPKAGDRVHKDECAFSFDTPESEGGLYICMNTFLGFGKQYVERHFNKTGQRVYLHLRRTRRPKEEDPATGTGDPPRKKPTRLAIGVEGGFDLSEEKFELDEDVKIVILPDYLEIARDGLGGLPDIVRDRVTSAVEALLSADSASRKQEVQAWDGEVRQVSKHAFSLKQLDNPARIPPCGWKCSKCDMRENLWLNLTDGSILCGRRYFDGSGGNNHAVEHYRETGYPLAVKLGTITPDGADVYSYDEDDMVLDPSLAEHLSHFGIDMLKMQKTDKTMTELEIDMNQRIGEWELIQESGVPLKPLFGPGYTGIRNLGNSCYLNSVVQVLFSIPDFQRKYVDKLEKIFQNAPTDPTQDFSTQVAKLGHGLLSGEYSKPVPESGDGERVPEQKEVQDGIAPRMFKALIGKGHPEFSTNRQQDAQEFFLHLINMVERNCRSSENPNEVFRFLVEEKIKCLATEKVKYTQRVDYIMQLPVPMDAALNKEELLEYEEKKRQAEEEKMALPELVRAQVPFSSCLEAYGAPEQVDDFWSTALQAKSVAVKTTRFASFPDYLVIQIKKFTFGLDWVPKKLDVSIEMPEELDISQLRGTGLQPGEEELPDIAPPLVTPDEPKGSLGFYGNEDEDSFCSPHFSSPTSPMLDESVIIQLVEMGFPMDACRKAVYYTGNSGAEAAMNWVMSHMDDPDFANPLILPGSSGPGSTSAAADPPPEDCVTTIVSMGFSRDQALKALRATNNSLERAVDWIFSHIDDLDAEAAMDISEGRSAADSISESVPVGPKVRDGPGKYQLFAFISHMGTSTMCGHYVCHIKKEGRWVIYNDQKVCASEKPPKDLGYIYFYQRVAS
UniProt P48059, whole entry, looked up: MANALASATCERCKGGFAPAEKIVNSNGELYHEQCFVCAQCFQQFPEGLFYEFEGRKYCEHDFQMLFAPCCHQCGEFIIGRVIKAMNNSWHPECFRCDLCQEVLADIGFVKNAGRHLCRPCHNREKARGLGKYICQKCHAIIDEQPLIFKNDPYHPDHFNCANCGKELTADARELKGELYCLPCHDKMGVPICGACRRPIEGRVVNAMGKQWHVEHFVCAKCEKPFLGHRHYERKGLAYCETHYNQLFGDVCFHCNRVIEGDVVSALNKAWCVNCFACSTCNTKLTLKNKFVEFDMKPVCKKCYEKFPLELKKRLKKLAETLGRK
UniProt P50213: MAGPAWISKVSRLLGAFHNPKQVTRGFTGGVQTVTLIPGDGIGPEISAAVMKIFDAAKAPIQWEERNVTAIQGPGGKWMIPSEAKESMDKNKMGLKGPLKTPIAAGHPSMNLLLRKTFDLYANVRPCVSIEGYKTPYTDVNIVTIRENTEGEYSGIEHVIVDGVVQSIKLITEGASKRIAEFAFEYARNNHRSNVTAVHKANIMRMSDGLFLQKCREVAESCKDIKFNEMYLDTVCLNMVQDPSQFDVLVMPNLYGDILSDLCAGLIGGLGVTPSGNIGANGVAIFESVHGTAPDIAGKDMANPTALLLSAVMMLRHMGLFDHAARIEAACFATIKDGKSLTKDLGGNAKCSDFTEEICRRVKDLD
UniProt P49841: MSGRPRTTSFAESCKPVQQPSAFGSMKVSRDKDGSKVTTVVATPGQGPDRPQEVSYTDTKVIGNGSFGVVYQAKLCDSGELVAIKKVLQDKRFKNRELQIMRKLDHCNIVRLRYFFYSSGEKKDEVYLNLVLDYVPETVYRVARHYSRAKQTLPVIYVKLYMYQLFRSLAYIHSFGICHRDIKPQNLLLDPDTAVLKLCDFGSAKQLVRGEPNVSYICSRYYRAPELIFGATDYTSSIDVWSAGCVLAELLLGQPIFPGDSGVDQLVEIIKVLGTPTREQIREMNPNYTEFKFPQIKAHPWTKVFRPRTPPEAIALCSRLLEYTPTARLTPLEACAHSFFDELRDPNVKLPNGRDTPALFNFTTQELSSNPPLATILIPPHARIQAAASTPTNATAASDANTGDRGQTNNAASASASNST
UniProt P48444: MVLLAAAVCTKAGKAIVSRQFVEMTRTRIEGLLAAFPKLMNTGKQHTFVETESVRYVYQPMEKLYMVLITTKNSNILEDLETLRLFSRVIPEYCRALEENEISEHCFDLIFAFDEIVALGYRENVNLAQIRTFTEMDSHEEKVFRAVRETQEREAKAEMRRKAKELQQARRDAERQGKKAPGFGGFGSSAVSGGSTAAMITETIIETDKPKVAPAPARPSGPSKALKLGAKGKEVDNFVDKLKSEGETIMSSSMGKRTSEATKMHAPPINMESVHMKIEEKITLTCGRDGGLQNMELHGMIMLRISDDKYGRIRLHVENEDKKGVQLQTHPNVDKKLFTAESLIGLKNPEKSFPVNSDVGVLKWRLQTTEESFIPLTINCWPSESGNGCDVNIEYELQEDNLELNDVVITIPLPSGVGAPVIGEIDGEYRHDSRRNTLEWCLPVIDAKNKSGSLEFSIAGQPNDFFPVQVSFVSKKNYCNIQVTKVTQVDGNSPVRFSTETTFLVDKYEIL
UniProt P46063: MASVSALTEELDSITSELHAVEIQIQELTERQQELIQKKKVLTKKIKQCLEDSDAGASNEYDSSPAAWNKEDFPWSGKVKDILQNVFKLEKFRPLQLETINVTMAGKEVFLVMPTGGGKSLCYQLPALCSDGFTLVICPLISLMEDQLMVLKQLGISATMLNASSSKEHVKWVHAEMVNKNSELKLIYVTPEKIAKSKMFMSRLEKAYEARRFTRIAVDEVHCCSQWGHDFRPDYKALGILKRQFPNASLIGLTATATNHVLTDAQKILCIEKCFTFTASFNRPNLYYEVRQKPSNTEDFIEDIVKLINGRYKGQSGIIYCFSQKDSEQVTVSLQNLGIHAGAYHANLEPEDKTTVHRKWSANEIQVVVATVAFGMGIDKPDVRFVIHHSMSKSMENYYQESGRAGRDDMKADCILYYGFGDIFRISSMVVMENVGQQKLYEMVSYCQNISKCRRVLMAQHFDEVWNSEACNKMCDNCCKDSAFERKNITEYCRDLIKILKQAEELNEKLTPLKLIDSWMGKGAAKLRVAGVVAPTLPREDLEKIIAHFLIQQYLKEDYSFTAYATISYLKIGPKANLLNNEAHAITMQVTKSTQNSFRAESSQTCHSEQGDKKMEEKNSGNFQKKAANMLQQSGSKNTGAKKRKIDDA

Most of the targets with a hit are listed elsewhere, so they are rarer here than in the full data. Single values of this set are uncertain. The entries are a selection whose mix differs from that of the whole data set.

Compound in the experiment: COC(=O)/C=C/c1ccccc1 [methyl cinnamate]
Kind of experiment: log2 ratio of iodoacetamide-alkyne labeling of the cysteine site, DMSO over compound (competition); higher = stronger covalent engagement of the cysteine by the compound, active = 1 or more. Particulars: 500 µM; treatment time 1 h; system: HEK293T cell lysate. A digest of the protocol: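 The log2 competition ratio per cysteine is defined as mean reporter intensity in control channels over mean reporter intensity in compound channels. Lysate from HEK293T cells (2 mg/mL) received electrophile (500 µM) or vehicle for 1 h at ambient temperature, followed by iodoacetamide alkyne for 1 h. Samples were clicked to sCIP-TMT reagents, pooled, trypsin-digested overnight at 37 °C, streptavidin-enriched, acid-eluted and run on Orbitrap Eclipse LC-MS/MS with FAIMS, with quantification in FragPipe. Three replicates with duplicate channels were used, and any cysteine quantified in only one replicate was excluded.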
For VDAC2 C47 (UniProt P45880), the “log2 ratio of iodoacetamide-alkyne labeling” value (“log2 ratio” for short) is inactive: 0.157. As for PREP C57 (UniProt P48147), the figure is inactive: 0.143; as for CCT3 C372 (UniProt P49368), inactive: 0.358. Regarding VDAC2 C13 (UniProt P45880), the “log2 ratio” value was inactive: 0.158.

In the case of SRP9 C39 (UniProt P49458), the “log2 ratio” value was inactive: 0.225.

Turning to DNA2 C569 (UniProt P51530), the “log2 ratio” value is inactive: 0.252. For GRK6 C474 (UniProt P43250), the “log2 ratio” value was inactive: -0.066.

As for QARS C556 (UniProt P47897), the “log2 ratio” value is inactive: -0.313. RANBP2 C3071 (UniProt P49792): the “log2 ratio” value was inactive: 0.102. In the case of RAB28 C31 (UniProt P51157), the “log2 ratio” value is inactive: 0.197. Regarding GALK1 C170 (UniProt P51570), the “log2 ratio” value is inactive: -0.321. On to CTCF C268 (UniProt P49711), for which the “log2 ratio” value is inactive: 0.171. For CCT3 C213 (UniProt P49368), the “log2 ratio” value was inactive: 0.05.

Take GMPS C137 (UniProt P49915): the “log2 ratio” value was inactive: 0.452. As for RANGAP1 C82 (UniProt P46060), the figure is inactive: 0.174. As for NASP C84 (UniProt P49321), the figure is inactive: 0.195; as for RANBP2 C1196 (UniProt P49792), inactive: 0.248.

Regarding VDAC2 C76 (UniProt P45880), the “log2 ratio” value was inactive: 0.185. With USP5 C219 (UniProt P45974), the “log2 ratio” value was inactive: -0.413. For the target MAP1B C1228 (UniProt P46821), the “log2 ratio” value was inactive: 0.344. As for MCM2 C522 (UniProt P49736), the figure is inactive: -0.138; as for LRBA C1563 (UniProt P50851), inactive: 0.56.

RPS5 C155 (UniProt P46782): the “log2 ratio” value was inactive: 0.00966.

On to UniProt P49591_C300, for which the “log2 ratio” value was inactive: 0.0914. For the target HCFC1 C149 (UniProt P51610), the “log2 ratio” value is inactive: 0.203.

For MKI67 C715 (UniProt P46013), the “log2 ratio” value was inactive: 0.25.

On to AARS C947 (UniProt P49588), for which the “log2 ratio” value was inactive: 0.154.

Regarding MSH2 C199 (UniProt P43246), the “log2 ratio” value was inactive: 0.309.

Turning to LIMS1 C303 (UniProt P48059), the “log2 ratio” value is inactive: 0.375.

Turning to MKI67 C1373 (UniProt P46013), the “log2 ratio” value was inactive: 0.325. IDH3A C127 (UniProt P50213): the “log2 ratio” value is inactive: 0.195. On to UniProt P49841_C14, for which the “log2 ratio” value was inactive: 0.232. On to MAP1B C2065 (UniProt P46821), for which the “log2 ratio” value is inactive: 0.35. As for GALK1 C322 (UniProt P51570), the figure is inactive: 0.0825; as for MRPL19 C248 (UniProt P49406), inactive: -0.069. As for ARCN1 C441 (UniProt P48444), the “log2 ratio” value was inactive: 0.0745. As for RECQL C49 (UniProt P46063), the figure is inactive: 0.146.
